In article PMC10611828 (European Journal of Nuclear Medicine and Molecular Imaging, 2023):

Assays:
[1] = general procedure: Fmoc solid-phase peptide synthesis; Chlorotrityl resin; Rink amide MBHA resin; HBTU/Oxyma Pure/DIPEA; PyBOP/DIPEA; settings: whole synthesis, HPLC (LC/MS 1260 Infinity II, Agilent)
[2] = general procedure: Fmoc solid-phase peptide synthesis; Rink Amide MBHA Resin; HBTU/Oxyma Pure/DIPEA; PyBOP/DIPEA; settings: whole synthesis
[3] = general procedure: Fmoc solid-phase peptide synthesis; Chlorotrityl resin; HBTU/Oxyma Pure/DIPEA; PyBOP/DIPEA; settings: whole synthesis

| Substance | final purity (method not given) [1] [%] | isolated yield [2] [%] | isolated yield [3] [%] |
| --- | --- | --- | --- |
| DOTA-Pip-D-Phe-Gln-Trp-Ala-Val-Gly-His-Sta-Leu-NH2 [RM2] | > 95 | 55.9 | – |
| DOTA-pADA-D-Phe-Gln-Trp-Ala-Val-Gly-His-NH-CH[CH2-CH(CH3)2]2 | > 95 | – | 50.2 |
